In the supplement of paper PMC12067093, “Discovery and optimisation of a covalent ligand for TRIM25 and its application to targeted protein ubiquitination” (Chemical Science, 2025):
The other results are listed elsewhere or left out.

By UniProt entry, the sequences of proteins in these tests, tags left out. Where a name states a change or a piece, a line headed by the entry shows the natural chain unless it says otherwise.
UniProt Q15477, whole entry, looked up: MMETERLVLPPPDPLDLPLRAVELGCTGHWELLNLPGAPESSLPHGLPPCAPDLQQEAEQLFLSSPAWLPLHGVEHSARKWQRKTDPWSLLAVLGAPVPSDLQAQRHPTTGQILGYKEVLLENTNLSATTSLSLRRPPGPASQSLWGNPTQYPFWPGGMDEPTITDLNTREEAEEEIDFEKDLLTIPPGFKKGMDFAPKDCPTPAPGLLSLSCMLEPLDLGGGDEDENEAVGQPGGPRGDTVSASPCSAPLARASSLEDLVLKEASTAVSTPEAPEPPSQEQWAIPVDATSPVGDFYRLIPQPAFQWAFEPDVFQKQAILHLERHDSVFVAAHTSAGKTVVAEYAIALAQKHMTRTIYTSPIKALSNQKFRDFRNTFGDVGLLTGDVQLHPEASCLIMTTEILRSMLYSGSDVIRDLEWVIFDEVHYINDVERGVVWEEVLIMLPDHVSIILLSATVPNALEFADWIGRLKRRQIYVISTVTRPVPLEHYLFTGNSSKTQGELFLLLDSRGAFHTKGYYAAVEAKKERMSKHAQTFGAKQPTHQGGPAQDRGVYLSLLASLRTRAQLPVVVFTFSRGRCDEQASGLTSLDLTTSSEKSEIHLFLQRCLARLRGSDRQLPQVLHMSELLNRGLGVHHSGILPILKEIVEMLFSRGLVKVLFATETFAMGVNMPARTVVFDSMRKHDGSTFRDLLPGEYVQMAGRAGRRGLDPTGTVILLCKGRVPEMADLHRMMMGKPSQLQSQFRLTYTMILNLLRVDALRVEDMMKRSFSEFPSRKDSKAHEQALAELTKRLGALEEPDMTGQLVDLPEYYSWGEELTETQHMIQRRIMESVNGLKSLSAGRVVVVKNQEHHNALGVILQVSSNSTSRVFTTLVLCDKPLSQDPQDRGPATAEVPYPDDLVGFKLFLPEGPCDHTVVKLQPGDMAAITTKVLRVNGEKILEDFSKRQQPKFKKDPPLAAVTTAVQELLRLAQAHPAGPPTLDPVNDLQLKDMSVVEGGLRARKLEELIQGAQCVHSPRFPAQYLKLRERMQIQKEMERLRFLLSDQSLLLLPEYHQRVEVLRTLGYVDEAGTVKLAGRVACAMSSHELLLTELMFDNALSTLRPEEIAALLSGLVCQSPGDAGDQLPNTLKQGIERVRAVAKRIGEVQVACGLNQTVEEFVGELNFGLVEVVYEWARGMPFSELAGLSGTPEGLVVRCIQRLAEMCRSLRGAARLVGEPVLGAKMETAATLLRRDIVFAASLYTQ
UniProt Q9UHD8: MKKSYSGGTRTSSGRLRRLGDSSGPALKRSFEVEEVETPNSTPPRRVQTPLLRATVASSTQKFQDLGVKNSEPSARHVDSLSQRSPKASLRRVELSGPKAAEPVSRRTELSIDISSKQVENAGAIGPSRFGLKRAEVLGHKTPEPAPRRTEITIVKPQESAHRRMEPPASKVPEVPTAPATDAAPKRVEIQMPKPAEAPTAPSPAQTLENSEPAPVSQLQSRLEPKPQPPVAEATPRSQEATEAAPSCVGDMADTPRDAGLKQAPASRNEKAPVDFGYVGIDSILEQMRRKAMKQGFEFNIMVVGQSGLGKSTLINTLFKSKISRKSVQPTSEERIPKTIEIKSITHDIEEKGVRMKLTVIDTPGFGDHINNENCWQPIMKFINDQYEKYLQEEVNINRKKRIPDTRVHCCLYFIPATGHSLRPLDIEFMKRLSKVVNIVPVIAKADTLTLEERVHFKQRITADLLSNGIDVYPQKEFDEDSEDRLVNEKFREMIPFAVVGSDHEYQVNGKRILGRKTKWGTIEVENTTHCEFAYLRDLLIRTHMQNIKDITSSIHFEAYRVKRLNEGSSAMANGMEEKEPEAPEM
UniProt Q15019: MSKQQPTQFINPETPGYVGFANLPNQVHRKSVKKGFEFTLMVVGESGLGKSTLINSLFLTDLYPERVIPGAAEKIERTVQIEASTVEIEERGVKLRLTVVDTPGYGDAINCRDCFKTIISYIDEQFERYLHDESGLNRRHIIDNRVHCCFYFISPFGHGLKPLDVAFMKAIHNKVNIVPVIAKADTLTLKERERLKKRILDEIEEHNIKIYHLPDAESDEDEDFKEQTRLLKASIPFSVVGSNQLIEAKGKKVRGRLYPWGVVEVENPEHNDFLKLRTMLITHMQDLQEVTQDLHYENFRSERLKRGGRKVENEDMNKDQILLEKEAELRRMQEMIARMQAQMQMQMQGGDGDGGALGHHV
UniProt Q12874: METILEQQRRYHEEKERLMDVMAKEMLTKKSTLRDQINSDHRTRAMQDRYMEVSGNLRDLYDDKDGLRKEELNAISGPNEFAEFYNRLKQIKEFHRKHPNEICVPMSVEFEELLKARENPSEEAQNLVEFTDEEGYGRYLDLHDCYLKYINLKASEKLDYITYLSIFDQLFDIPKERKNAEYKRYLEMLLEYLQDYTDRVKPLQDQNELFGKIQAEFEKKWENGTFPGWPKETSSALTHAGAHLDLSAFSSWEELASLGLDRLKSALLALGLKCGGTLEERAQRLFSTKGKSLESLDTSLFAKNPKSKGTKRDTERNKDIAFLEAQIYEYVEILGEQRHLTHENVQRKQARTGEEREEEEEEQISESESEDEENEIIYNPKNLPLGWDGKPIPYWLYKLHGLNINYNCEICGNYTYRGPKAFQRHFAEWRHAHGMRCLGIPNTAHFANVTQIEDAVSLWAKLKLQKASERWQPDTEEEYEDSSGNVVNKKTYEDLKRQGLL
UniProt P50452: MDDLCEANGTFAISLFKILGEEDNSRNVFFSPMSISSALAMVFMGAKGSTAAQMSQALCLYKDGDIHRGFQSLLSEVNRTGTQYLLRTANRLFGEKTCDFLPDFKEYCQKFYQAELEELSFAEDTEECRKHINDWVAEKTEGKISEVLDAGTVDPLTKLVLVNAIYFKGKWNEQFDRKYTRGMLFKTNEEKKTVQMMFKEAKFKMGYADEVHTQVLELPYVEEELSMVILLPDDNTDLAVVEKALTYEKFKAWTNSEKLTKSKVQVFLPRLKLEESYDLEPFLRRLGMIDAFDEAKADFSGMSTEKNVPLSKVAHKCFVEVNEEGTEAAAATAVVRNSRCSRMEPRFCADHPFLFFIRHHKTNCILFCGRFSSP
UniProt Q96FS4: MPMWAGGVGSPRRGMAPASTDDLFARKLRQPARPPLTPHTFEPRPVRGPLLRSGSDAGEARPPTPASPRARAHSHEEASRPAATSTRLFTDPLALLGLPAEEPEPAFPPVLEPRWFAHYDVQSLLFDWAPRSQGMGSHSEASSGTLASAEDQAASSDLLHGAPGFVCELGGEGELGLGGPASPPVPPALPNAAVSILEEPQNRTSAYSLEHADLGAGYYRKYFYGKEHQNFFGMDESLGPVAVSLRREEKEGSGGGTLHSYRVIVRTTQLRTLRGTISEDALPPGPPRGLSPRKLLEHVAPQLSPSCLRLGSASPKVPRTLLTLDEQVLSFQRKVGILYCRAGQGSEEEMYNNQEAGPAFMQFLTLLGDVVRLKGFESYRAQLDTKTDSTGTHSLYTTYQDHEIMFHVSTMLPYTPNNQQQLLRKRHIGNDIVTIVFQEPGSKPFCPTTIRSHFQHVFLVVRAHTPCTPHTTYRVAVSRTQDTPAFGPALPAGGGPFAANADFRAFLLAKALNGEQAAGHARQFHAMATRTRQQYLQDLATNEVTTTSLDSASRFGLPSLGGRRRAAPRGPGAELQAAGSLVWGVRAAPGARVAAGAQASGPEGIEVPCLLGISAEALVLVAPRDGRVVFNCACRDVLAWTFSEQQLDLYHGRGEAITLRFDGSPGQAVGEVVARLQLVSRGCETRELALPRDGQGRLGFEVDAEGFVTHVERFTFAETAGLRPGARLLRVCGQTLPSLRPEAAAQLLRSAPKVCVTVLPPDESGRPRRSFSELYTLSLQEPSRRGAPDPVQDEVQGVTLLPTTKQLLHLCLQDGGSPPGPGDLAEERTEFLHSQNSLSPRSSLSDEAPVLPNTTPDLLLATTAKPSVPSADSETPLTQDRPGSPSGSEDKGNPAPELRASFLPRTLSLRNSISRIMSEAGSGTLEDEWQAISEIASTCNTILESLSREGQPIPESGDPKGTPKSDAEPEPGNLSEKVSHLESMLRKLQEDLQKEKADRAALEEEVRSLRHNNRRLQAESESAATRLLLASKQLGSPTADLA
UniProt Q562F6: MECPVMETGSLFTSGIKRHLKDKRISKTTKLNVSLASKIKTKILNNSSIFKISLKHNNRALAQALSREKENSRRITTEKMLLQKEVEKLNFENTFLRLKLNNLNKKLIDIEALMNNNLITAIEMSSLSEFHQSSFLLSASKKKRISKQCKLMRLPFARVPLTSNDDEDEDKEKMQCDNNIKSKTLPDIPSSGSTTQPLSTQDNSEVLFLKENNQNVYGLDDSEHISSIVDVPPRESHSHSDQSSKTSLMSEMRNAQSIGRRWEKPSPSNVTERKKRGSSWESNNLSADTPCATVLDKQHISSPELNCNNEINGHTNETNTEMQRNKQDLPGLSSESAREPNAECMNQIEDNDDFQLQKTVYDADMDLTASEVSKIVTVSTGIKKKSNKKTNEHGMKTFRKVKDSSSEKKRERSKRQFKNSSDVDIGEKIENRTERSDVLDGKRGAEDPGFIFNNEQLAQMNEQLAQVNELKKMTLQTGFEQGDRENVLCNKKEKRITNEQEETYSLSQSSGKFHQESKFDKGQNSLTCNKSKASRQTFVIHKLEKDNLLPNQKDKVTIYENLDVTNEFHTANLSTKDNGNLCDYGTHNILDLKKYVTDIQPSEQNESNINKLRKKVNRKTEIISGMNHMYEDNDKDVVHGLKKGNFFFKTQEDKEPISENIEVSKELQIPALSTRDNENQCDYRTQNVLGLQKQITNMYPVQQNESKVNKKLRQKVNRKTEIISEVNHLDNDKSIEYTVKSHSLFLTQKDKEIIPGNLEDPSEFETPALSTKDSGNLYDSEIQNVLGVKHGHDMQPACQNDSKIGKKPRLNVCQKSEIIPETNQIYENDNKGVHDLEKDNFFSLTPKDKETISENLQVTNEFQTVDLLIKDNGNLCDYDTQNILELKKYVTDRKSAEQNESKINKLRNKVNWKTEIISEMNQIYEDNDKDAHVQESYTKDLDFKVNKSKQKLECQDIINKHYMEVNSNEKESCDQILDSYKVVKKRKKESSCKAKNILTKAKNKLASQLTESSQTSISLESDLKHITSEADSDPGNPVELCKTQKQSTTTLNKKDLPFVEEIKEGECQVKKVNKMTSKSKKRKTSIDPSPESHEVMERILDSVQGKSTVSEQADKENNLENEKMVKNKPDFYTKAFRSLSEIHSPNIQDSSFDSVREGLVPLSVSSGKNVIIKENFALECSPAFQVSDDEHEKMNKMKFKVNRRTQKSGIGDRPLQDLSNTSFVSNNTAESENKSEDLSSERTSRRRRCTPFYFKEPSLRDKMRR
UniProt P55011: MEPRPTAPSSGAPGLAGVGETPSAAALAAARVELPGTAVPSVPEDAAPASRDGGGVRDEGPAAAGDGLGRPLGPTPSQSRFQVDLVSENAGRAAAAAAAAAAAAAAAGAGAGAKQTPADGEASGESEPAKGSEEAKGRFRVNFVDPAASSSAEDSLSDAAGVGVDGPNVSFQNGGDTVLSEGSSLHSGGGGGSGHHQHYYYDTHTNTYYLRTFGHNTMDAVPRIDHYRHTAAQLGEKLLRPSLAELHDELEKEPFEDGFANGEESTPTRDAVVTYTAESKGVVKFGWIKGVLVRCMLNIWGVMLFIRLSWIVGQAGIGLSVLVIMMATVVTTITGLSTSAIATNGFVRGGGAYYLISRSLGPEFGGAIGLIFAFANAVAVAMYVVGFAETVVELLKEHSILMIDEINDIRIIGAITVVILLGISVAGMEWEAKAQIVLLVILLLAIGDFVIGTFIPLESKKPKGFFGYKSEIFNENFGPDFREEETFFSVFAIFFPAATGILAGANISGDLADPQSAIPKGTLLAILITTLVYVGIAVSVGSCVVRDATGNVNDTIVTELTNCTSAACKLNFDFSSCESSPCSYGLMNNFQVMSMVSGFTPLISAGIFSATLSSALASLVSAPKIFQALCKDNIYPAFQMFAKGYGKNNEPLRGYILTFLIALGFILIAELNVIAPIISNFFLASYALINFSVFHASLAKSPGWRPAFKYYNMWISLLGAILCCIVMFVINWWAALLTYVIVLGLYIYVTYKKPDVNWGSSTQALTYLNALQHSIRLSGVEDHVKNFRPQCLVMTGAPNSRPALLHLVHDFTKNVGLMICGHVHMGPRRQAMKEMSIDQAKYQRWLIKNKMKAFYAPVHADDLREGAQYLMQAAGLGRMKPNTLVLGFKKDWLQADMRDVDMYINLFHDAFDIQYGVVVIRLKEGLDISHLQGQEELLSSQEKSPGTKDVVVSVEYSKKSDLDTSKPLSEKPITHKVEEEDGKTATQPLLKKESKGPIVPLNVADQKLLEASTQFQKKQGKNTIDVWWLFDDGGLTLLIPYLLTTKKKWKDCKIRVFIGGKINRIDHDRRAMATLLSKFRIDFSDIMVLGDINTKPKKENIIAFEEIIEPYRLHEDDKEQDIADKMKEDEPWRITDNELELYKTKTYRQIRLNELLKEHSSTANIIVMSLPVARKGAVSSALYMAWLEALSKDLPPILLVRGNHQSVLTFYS

Compound: CC1Cc2ccccc2N1C(=O)C1CCCN(C1)C(=O)CCl (mixture of isomers) [TRIM25 ligand 11 (diastereomer mixture)]
Assay: probe-labelled cysteine peptide fold change vs DMSO (competition) (log2 fold change); higher = less target engagement (more negative = stronger competition)
Settings: THP-1, incubation time: 4 h
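Note: competitive chemoproteomic profiling in live THP-1 cells with an iodoacetamide desthiobiotin (IA-DTB) probe, comparing probe-labelled peptide intensities in compound-treated cells against DMSO-treated controls.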

Target	probe-labelled cysteine peptide fold change (10 µM)	probe-labelled cysteine peptide fold change (50 µM)
SKIV2L_Q15477_247_GDTVSASPCSAPLAR (UniProt Q15477)	-0.0294	-0.219
SEPT9_Q9UHD8_531_TKWGTIEVENTTHCEFAYLR (UniProt Q9UHD8)	-0.28	-0.248
SETDB1_Q15047_781_RLEECLPTGVYECNKR (UniProt Q15047)	-0.124	-0.00361
SETDB1_Q15047_329_TWEDIEDISCR (UniProt Q15047)	0.24	0.218
SEPT2_Q15019_149_VHCCFYFISPFGHGLKPLDVAFMK (UniProt Q15019)	0.0874	-0.0957
SHTN1_A0MZ66_442_GCESAVDELK (UniProt A0MZ66)	-0.0874	-0.107
SF3A2_Q15428_56_NHLGSYECK (UniProt Q15428)	-0.0327	0.00095
SLC25A22_Q9H936_271_GVNEDTYSGILDCAR (UniProt Q9H936)	0.166	-0.0367
SETX_Q7Z333_2265_MHPDICLFPSNYVYNR (UniProt Q7Z333)	0.053	-0.197
SGF29_Q96ES7_74_ADAEAECNILR (UniProt Q96ES7)	0.00272	0.133
SLC1A5_Q15758_39_GLAAAEPTANGGLALASIEDQGAAAGGYCGSR (UniProt Q15758)	-0.241	-0.199
SERPINB6_P35237_36_NVFFSPMSMSCALAMVYMGAK (UniProt P35237)	-0.325	-0.259
SF3B3_Q15393_1179_NVIDGDLCEQFNSMEPNK (UniProt Q15393)	-0.138	-0.255
SLC25A36_Q96CQ1_239_TCATTIAYPHEVVR (UniProt Q96CQ1)	0.0447	0.1
SETX_Q7Z333_1398_AGSHTAQNSDIFVPESDRSDYNCTGGTEVLANSNR (UniProt Q7Z333)	-0.136	-0.652
SF3A3_Q12874_103_HPNEICVPMSVEFEELLK (UniProt Q12874)	0.0836	0.209
SERPINB8_P50452_128_FYQAELEELSFAEDTEECR (UniProt P50452)	0.305	0.0573
SIPA1_Q96FS4_811_QLLHLCLQDGGSPPGPGDLAEER (UniProt Q96FS4)	0.0202	0.0931
SERPINB8_P50452_98_TCDFLPDFK (UniProt P50452)	0.00497	-0.162
SLC25A12_O75746_375_NSFDCFK (UniProt O75746)	0.167	0.181
SETDB1_Q15047_582_LFYLPHVCSYTCLSR (UniProt Q15047)	-0.142	-0.048

Target	probe-labelled cysteine peptide fold change (10 µM)	probe-labelled cysteine peptide fold change (50 µM)
SLAIN2_Q9P270_152_SVSPLVWCR (UniProt Q9P270)	-0.284	-0.326
SLC25A19_Q9HC21_222_KNENLQNLLCGSGAGVISK (UniProt Q9HC21)	-0.0148	-0.138
SH3RF1_Q7Z6J0_93_QRPWKPGPGGGSGTNCTNALR (UniProt Q7Z6J0)	-0.0835	-0.203
SHMT2_P34897_119_RYYGGAEVVDEIELLCQR (UniProt P34897)	-0.108	0.145
SH2B2_O14492_333_VASCSCELLTDAVDLPRPPETTAVGAVVTAPHSR (UniProt O14492)	0.196	0.186
SERPINB8_P50452_364+368_TNCILFCGR (UniProt P50452)	-0.0321	0.229
SLC12A4_Q9UP95_817_CTTAAHLALLVPK (UniProt Q9UP95)	0.23	0.117
SIPA1_Q96FS4_467_AHTPCTPHTTYR (UniProt Q96FS4)	0.187	0.0943
SETX_Q7Z333_1368_LSDCESTDVKR (UniProt Q7Z333)	-0.221	-0.293
SETX_Q7Z333_1398_AGSHTAQNSDIFVPESDRSDYNCTGGTEVLANSNRK (UniProt Q7Z333)	-0.152	-0.392
SH3GLB1_Q9Y371_121_CGETQKR (UniProt Q9Y371)	-0.113	-0.0123
SLC17A5_Q9NRA2_83_ACPEHSAPIK (UniProt Q9NRA2)	0.0365	0.073
SFSWAP_Q12872_307_CNRLEELMK (UniProt Q12872)	-0.129	-0.292
SLC1A4_P43007_500_VEAIPNCK (UniProt P43007)	0.0381	-0.0122
SHC1_P29353_212_KPCSRPLSSILGR (UniProt P29353)	-0.185	-0.0448
SF3A3_Q12874_437_CLGIPNTAHFANVTQIEDAVSLWAK (UniProt Q12874)	0.185	-0.0203
SIK3_Q9Y2K2_121_MLCHPHIIR (UniProt Q9Y2K2)	-0.132	0.0404
SETX_Q7Z333_688_LEDHLLAGSCLK (UniProt Q7Z333)	0.0862	-0.131
SEPT2_Q15019_148_VHCCFYFISPFGHGLK (UniProt Q15019)	0.25	0.327
SETD2_Q9BYW2_1766_LTCLELIQNTHSQSCLK (UniProt Q9BYW2)	0.129	0.25
SHMT1_P34896_389_NTCPGDR (UniProt P34896)	0.332	0.219

Target	probe-labelled cysteine peptide fold change (10 µM)	probe-labelled cysteine peptide fold change (50 µM)
SGO2_Q562F6_681_DNENQCDYR (UniProt Q562F6)	-0.0725	-0.011
SLC12A2_P55011_630_IFQALCK (UniProt P55011)	0.137	0.0624
SHCBP1_Q8NEM2_591_VDLEELIECATGK (UniProt Q8NEM2)	0.088	-0.228
SLC16A3_O15427_161_RPMANGLAAAGSPVFLCALSPLGQLLQDR (UniProt O15427)	-0.142	-0.136
SFMBT2_Q5VUG0_560_CVLVLK (UniProt Q5VUG0)	-0.203	0.0554
SLC25A10_Q9UBX3_69_TDGILALYSGLSASLCR (UniProt Q9UBX3)	0.0966	0.615
SKA1_Q96BD8_10_ASSDLEQLCSHVNEK (UniProt Q96BD8)	-0.107	-0.0752
SKP1_P63208_160_ENQWCEEK (UniProt P63208)	-0.0605	-0.129
SEPT2_Q15019_148_VHCCFYFISPFGHGLKPLDVAFMK (UniProt Q15019)	0.0639	0.119
SEPT7_Q16181_160_VQCCLYFIAPSGHGLK (UniProt Q16181)	0.2	-0.00708
SH3KBP1_Q96B97_103_CQVAFSYLPQNDDELELK (UniProt Q96B97)	-0.3	0.0322
SLC25A10_Q9UBX3_240_LMNSKGEYQGVFHCAVETAK (UniProt Q9UBX3)	-0.467	-0.199
SERPINB8_P50452_348_FCADHPFLFFIR (UniProt P50452)	-0.0885	0.0312
SLC12A2_P55011_791_NFRPQCLVMTGAPNSRPALLHLVHDFTK (UniProt P55011)	-0.125	0.0114
SEPT9_Q9UHD8_411_VHCCLYFIPATGHSLRPLDIEFMK (UniProt Q9UHD8)	-0.0102	0.137
SLC25A1_P53007_127+141_GLLCGLGAGVAEAVVVVCPMETIK (UniProt P53007)	0.12	0.061
SKIV2L_Q15477_719_GLDPTGTVILLCK (UniProt Q15477)	0.0408	0.0411
SEPT6_Q14141_42+47_SVSQGFCFNILCVGETGLGK (UniProt Q14141)	0.225	0.0658
SERPINB8_P50452_128_FYQAELEELSFAEDTEECRK (UniProt P50452)	-0.0048	-0.0437
SKA3_Q8IX90_215_MDDFECVTPK (UniProt Q8IX90)	-0.0875	-0.3
SF1_Q15637_282+292_CGGAGHIASDCK (UniProt Q15637)	-0.0927	-0.0122

Target	probe-labelled cysteine peptide fold change (10 µM)	probe-labelled cysteine peptide fold change (50 µM)
SIN3A_Q96ST3_551_ATEGIAMEIDYASCK (UniProt Q96ST3)	0.0337	0.072
SIN3A_Q96ST3_1063_KAEQLMSDENCFK (UniProt Q96ST3)	-0.0204	0.0248
SLC25A12_O75746_563_AGQTTYSGVIDCFR (UniProt O75746)	0.231	0.00781
SEPT5_Q99719_278_LYPWGIVEVENQAHCDFVK (UniProt Q99719)	0.19	0.194
SGO2_Q562F6_798_HGHDMQPACQNDSK (UniProt Q562F6)	-0.0181	-0.296
SFMBT2_Q5VUG0_511_KIPHDLCLFPHLDTTGTVNGK (UniProt Q5VUG0)	-0.251	-0.114
SLC25A28_Q96A46_49_GAGGGEAGACRPPVR (UniProt Q96A46)	-0.0591	-0.186
SHPK_Q9UHJ6_187_SYDAAGTIHDYVVAMLCGLPR (UniProt Q9UHJ6)	0.148	0.0926
SHKBP1_Q8TBC3_447_HLISVCADNNHVR (UniProt Q8TBC3)	-0.0257	0.131
SIRT6_Q8N6T7_141_LAELHGNMFVEECAK (UniProt Q8N6T7)	0.087	0.00561
SIRPA_P78324_170_ATPQHTVSFTCESHGFSPR (UniProt P78324)	0.355	0.211
SEPT11_Q9NVA2_150_IHACLYFIAPTGHSLK (UniProt Q9NVA2)	-0.152	0.021
SETX_Q7Z333_1656_NSCNVLHPQSPNNSNR (UniProt Q7Z333)	0.0238	-0.178
SEPT9_Q9UHD8_531_WGTIEVENTTHCEFAYLR (UniProt Q9UHD8)	0.0123	-0.0856
SETD1B_Q9UPS6_1912_FINHSCNPNCYAK (UniProt Q9UPS6)	-0.127	0.109
SF1_Q15637_279_SITNTTVCTK (UniProt Q15637)	0.0565	0.0538
SERPINB8_P50452_59_GSTAAQMSQALCLYK (UniProt P50452)	0.0779	-0.0697
SH3GLB2_Q9NR46_252_CLHEFVK (UniProt Q9NR46)	0.0704	0.0561
SERGEF_Q9UGK8_73_ITGGGGHSAVVTDGGDLFVCGLNK (UniProt Q9UGK8)	-0.0306	-0.118
SETX_Q7Z333_884_NEELVIFSFHENNCK (UniProt Q7Z333)	0.05	-0.287

Quoted from the listing:
SIRPA_P78324_170_ATPQHTVSFTCESHGFSPR (UniProt P78324) | probe-labelled cysteine peptide fold change (10 µM): 0.355
SLC25A36_Q96CQ1_239_TCATTIAYPHEVVR (UniProt Q96CQ1) | probe-labelled cysteine peptide fold change (50 µM): 0.1
SEPT2_Q15019_148_VHCCFYFISPFGHGLK (UniProt Q15019) | probe-labelled cysteine peptide fold change (10 µM): 0.25
